The target of assay [1] is T1, endogenous GIPR of mouse islets (mouse (endogenous in islets)) (UniProt Q0P543).
T1 sequence: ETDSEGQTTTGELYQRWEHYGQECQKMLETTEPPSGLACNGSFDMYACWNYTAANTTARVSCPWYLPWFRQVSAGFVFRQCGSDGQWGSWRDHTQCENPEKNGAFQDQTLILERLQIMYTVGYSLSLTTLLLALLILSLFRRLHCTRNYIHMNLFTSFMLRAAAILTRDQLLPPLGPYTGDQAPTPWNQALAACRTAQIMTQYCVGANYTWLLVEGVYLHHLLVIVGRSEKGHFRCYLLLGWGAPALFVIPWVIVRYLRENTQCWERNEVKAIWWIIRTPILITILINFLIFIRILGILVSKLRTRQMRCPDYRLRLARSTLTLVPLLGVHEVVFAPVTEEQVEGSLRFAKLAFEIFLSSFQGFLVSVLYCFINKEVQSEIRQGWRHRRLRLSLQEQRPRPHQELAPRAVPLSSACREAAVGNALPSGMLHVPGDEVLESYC
As to the kind of experiment: confocal microscopy of fluorescent ligand on cells; isolated intact mouse islets, 15 minutes; WT islets with 100 nM GLP-1-TMR; WT and Gipr-/- (KO) islets with 1 µM GIP-TMR; only the binder purified.

Sequences of proteins named here, by UniProt entry; tags and fusion partners are left off. Residues count along the entry.
UniProt P43220, residues 24-463: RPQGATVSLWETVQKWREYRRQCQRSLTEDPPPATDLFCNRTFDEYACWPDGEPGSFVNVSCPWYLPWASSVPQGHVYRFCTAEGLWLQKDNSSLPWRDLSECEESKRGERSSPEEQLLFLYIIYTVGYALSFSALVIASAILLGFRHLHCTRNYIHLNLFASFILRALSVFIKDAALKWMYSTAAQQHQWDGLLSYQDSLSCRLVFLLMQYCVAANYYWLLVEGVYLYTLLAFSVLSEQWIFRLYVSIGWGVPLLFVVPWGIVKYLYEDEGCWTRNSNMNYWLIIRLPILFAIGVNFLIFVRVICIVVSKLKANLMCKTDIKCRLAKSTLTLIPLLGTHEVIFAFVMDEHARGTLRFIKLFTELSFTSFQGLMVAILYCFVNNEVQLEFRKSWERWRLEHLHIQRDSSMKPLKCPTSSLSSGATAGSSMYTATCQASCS
UniProt P09681, residues 52-93: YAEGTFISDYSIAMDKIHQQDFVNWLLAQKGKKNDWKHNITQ
UniProt P32121: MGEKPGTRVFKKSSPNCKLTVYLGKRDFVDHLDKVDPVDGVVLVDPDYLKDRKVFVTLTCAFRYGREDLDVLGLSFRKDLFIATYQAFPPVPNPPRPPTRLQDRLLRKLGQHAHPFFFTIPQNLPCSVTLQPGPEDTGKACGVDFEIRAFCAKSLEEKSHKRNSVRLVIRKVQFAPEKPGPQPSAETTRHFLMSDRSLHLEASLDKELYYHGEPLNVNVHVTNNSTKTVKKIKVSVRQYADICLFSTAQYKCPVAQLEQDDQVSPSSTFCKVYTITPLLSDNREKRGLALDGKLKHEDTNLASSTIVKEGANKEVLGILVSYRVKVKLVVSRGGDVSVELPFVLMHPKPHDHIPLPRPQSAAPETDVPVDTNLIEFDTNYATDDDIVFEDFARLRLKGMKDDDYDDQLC

Assay [2] deals with GLP-1R-SmBiT (FLAG-tagged glucagon-like peptide-1 receptor with SmBiT at the C-terminus) (UniProt P43220). As to the kind of experiment: split reporter; NanoBiT complementation in live INS-1 832/3 GLP-1R KO or GIPR KO cells co-transfected with receptor-SmBiT and LgBiT-mini-Gs, -mini-Gq, -mini-Gi or -β-arrestin 2; 37 °C, 30 minutes with 100 nM GLP-1 or GIP; responses normalised to vehicle.

These are yes or no findings as the source states them, for the method shown. For some assays here: In cells and extracts the contact can be indirect. Some results given as binding are weak or reduced against the parent protein; the word gives no strength.

Turning to “GIP-TMR (tetramethylrhodamine conjugate of GIP(1-42)) (from UniProt P09681 52-93) (peptide)”, the binding entry in assay [1] was “binds”.
For the substance “LgBiT-β-arrestin 2 (from UniProt P32121 1-409)”, the binding result in assay [2] is “binds”.

The record behind these values is PMC10016038, “Enhanced Endosomal Signaling and Desensitization of GLP-1R vs GIPR in Pancreatic Beta Cells” (Endocrinology, 2023).
